Source: the supplement of paper PMC10060354, “Discovery of a small molecule ligand of FRS2 that inhibits invasion and tumor growth” (Cellular Oncology, 2022)
Many values rest on one well or one pass, so single values are uncertain.

Sequences of proteins named here, by UniProt entry; tags and fusion partners are left off. A change or cut given only in a name is not applied to a line headed by its entry.
UniProt Q96CB9: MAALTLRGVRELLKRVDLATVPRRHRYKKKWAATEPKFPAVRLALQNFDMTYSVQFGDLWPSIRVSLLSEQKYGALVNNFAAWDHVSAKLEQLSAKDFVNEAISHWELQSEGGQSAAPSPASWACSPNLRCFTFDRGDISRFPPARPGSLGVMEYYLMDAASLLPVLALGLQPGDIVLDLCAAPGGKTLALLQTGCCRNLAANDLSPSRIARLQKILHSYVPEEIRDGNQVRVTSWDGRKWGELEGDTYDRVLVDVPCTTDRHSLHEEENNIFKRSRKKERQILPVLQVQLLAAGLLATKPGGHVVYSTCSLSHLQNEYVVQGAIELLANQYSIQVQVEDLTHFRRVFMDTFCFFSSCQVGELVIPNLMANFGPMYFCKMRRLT
UniProt O60343: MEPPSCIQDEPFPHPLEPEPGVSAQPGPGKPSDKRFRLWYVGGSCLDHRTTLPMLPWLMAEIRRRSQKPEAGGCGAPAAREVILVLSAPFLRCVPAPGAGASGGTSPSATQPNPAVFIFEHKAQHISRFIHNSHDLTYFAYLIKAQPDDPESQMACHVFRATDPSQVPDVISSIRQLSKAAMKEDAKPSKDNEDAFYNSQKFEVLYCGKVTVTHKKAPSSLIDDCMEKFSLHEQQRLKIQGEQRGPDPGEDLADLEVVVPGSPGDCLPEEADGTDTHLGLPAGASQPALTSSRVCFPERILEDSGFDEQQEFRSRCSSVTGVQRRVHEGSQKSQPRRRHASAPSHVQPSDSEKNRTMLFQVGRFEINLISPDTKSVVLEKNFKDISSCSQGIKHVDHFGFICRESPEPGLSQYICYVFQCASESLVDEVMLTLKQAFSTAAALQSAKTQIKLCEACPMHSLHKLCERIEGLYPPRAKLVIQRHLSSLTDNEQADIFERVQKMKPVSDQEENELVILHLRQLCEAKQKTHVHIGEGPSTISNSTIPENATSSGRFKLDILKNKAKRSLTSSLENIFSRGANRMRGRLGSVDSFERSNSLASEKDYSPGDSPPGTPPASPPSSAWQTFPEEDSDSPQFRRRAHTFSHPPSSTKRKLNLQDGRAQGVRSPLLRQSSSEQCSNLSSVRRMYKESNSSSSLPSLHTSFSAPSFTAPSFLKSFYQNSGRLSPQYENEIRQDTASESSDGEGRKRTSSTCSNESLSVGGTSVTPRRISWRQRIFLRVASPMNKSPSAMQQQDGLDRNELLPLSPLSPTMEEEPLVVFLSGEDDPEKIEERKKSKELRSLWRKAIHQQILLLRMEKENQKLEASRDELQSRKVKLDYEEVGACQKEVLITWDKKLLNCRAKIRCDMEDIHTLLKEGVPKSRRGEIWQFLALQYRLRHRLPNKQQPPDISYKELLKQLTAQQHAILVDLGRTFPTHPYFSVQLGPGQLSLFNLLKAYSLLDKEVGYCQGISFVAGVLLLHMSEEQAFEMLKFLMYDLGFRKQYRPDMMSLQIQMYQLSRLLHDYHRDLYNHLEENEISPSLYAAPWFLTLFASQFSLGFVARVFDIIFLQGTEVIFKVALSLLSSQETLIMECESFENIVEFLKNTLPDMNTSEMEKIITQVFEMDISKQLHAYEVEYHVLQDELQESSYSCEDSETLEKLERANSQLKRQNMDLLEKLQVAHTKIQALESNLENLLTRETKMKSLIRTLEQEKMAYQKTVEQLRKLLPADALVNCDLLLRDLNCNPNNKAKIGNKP
UniProt Q5UCC4: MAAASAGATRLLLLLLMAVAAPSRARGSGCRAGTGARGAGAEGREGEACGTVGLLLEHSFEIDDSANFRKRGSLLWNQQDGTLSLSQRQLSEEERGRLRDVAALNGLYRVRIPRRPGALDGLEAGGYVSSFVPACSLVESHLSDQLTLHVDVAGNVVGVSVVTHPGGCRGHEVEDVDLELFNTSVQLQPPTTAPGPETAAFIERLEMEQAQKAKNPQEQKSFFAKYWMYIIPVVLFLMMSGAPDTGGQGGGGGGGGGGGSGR
UniProt Q70IA6: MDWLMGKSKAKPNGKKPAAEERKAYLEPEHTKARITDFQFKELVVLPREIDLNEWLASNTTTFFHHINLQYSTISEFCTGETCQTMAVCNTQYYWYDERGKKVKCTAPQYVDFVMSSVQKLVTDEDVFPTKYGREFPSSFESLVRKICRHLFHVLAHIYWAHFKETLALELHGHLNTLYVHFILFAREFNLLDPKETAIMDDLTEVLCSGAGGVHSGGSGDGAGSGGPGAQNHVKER
UniProt O75874, whole entry: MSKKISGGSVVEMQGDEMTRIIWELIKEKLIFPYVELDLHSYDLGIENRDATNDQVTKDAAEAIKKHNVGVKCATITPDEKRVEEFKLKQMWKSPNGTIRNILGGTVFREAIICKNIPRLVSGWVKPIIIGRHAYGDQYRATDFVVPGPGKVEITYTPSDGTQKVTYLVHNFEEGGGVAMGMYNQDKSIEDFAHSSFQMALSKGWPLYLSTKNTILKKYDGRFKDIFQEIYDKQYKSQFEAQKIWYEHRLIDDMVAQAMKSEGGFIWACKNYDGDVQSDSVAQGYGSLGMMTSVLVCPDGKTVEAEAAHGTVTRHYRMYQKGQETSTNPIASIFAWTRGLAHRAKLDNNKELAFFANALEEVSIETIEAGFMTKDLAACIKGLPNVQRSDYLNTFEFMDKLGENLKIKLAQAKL
UniProt Q96SB4, whole entry: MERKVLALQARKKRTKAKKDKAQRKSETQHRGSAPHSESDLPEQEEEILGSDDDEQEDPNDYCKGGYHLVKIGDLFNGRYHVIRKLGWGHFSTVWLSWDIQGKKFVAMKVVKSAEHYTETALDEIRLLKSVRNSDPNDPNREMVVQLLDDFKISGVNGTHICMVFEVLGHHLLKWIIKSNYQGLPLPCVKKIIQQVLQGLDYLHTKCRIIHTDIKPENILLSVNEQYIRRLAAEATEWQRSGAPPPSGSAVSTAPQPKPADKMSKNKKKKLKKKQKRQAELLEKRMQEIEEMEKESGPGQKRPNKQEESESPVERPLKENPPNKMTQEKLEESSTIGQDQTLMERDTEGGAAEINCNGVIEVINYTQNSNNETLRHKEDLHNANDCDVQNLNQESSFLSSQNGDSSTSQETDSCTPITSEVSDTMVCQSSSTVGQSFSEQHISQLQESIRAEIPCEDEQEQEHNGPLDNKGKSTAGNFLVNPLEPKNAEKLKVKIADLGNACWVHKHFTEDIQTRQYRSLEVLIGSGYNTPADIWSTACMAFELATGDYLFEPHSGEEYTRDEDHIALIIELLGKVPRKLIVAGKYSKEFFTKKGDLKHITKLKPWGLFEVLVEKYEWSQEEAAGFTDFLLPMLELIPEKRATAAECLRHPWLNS
UniProt Q9UBB4: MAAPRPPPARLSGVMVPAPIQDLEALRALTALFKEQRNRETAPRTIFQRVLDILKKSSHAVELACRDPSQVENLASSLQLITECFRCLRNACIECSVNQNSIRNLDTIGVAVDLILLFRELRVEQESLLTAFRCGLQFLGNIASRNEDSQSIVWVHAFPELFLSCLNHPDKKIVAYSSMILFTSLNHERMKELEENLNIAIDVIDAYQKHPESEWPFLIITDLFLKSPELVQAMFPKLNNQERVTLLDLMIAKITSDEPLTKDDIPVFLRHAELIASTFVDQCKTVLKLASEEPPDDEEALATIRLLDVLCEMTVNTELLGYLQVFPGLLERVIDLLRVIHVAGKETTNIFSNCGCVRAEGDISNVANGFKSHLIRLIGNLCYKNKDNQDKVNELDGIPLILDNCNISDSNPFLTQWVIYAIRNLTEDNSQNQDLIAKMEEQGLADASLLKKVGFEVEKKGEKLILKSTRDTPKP
UniProt O95625: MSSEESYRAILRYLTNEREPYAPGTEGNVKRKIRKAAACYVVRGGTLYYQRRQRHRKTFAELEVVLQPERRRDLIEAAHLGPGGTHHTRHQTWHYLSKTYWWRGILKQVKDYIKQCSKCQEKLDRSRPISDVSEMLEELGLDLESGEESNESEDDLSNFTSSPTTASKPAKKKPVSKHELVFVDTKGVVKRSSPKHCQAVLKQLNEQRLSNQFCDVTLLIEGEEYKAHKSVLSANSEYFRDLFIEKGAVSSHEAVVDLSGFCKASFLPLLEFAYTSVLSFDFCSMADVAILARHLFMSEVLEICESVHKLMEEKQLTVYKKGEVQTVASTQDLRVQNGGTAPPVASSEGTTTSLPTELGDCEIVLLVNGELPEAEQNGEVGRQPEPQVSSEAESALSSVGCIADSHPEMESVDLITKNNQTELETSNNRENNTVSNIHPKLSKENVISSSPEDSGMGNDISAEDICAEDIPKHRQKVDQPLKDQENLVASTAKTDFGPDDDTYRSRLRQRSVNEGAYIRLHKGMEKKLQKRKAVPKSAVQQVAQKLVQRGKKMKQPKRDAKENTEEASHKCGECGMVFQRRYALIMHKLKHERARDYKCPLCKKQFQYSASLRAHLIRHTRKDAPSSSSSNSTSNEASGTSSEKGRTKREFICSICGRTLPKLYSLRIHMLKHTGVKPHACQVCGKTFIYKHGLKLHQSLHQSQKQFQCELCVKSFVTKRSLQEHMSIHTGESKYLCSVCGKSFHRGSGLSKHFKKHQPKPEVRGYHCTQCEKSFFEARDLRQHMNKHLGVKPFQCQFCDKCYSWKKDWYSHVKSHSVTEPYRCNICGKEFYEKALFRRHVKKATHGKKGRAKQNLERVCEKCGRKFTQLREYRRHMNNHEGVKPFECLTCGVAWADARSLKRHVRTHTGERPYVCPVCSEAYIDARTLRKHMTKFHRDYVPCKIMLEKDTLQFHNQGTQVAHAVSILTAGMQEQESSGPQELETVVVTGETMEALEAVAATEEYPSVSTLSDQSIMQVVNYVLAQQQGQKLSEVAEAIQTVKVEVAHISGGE
UniProt Q9BRR3: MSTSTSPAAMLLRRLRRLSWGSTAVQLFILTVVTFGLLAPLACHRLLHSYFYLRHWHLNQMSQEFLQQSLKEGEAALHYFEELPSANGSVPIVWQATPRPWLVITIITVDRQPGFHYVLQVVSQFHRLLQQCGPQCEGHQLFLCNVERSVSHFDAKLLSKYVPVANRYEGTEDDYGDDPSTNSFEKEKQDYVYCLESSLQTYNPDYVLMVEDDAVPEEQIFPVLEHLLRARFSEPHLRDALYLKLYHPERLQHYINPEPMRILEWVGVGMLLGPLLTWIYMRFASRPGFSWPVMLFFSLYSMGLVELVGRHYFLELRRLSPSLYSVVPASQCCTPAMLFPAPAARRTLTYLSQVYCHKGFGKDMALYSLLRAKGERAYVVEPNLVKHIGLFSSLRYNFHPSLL
UniProt P54136: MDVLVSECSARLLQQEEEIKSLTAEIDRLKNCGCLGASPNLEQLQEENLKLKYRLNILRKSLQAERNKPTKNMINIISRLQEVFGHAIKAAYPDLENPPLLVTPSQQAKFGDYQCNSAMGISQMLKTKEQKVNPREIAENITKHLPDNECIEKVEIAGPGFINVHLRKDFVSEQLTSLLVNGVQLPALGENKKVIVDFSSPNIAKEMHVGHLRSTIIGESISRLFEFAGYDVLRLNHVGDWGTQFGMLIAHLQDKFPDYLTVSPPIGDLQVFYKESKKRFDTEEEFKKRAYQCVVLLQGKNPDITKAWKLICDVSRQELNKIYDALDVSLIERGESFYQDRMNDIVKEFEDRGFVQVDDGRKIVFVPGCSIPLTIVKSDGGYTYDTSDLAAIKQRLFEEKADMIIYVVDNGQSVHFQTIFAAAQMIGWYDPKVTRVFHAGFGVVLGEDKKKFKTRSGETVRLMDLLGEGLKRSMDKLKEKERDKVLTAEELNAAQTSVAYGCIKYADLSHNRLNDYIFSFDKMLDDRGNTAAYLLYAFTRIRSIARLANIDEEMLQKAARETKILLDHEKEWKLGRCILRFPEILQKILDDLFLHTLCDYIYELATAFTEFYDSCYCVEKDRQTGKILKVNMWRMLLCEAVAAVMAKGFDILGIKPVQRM
UniProt Q6ZQX7: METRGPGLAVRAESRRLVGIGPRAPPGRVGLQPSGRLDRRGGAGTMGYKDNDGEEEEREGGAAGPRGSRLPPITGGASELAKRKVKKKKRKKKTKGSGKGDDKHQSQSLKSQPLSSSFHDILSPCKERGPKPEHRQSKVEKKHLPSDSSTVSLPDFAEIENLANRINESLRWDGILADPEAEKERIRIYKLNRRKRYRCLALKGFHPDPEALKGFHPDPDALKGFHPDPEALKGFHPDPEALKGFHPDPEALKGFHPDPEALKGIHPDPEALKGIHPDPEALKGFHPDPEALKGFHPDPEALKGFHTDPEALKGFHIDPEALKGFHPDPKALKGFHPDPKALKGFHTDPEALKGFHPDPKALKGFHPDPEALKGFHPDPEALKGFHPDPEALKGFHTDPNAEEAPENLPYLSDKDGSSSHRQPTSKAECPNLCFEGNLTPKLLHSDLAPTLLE
UniProt Q15004: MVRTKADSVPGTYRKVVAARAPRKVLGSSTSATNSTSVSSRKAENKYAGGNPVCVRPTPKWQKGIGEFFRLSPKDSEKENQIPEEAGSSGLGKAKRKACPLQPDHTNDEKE
UniProt P07741: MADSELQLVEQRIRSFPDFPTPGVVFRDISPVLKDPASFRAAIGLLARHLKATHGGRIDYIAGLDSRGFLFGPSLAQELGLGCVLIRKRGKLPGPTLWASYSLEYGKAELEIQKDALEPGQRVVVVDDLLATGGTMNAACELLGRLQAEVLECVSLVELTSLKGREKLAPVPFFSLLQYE

Compound: [O-][N+](C(C1=C(C(O)=C2)NC(C(C=C3)=CC=C3Cl)C4C1C=CC4)=C2Cl)=O
Experiment: melting temperature shift (compound 7 minus DMSO); higher = compound stabilises the protein
Conditions: 10 µM
Procedure: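 Thermal proteome profiling (TMT mass spectrometry) in intact DAOY medulloblastoma cells or DAOY lysates treated with 10 µM compound 7 or DMSO, heated at 10 temperatures from 40.5 to 73.8 °C for 3 min. Melting curves were fitted with the Bioconductor TPP package, and the melting point difference between compound and vehicle is reported per protein (single curve per condition).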

[1] = system: DAOY cell lysate, treatment time: 20 min, 4 °C
[2] = system: intact DAOY cells, treatment time: 90 min, 37 °C

| Target | melting temperature shift [1] [°C] | melting temperature shift [2] [°C] |
| --- | --- | --- |
| COG2 (UniProt Q14746) | -0.42 | -0.525 |
| CEP290 (UniProt O15078) | 0.145 | – |
| CHPF2 (UniProt Q9P2E5) | 1.31 | 2.89 |
| UniProt P05121 | 1.09 | 0.446 |
| CYBA (UniProt P13498) | 1.93 | -1.06 |
| IRF2BP2 (UniProt Q7Z5L9) | -0.867 | – |
| NSUN4 (UniProt Q96CB9) | – | 1.84 |
| UniProt P01112 | 2.1 | 0.0305 |
| UniProt P16402 | 1.68 | -0.485 |
| TBC1D4 (UniProt O60343) | -0.86 | 0.116 |
| EMC10 (UniProt Q5UCC4) | 0.231 | 0.524 |
| TK1 (UniProt P04183) | -1.49 | – |
| UniProt P34741 | 1.5 | – |
| A0AVF1 | 0.614 | – |
| GDI1 (UniProt P31150) | -0.188 | 0.219 |
| NSMCE2 (UniProt Q96MF7) | -0.785 | -0.44 |
| TARBP2 (UniProt Q15633) | 0.259 | – |
| SCLY (UniProt Q96I15) | -0.988 | -0.395 |
| MGEA5 (UniProt O60502) | -0.372 | 0.199 |
| ICT1 (UniProt Q14197) | 0.685 | -2.82 |
| ANXA4 (UniProt P09525) | -0.0203 | 0.371 |
| PIN1 (UniProt Q13526) | -1.01 | -0.428 |
| MOB2 (UniProt Q70IA6) | 0.164 | -0.0117 |
| UniProt P49356 | 0.115 | 0.565 |

| Target | melting temperature shift [1] [°C] | melting temperature shift [2] [°C] |
| --- | --- | --- |
| ASS1 (UniProt P00966) | – | -0.639 |
| IDH1 (UniProt O75874) | -0.499 | -1.67 |
| USP3 (UniProt Q9Y6I4) | 0.658 | -0.708 |
| UniProt Q9H6U8 | 1.29 | 0.0302 |
| C16ORF62 (UniProt Q7Z3J2) | -0.663 | -1.15 |
| ZFPL1 (UniProt O95159) | – | -0.0752 |
| UniProt Q5TCQ9 | 0.116 | – |
| FANCI (UniProt Q9NVI1) | -0.812 | 0.524 |
| UniProt Q9H930 | – | -0.557 |
| VAC14 (UniProt Q08AM6) | -0.102 | -0.12 |
| MRPS14 (UniProt O60783) | -2.38 | -0.881 |
| UniProt Q7L523 | -0.863 | 1.37 |
| ZCCHC8 (UniProt Q6NZY4) | 0.865 | 0.545 |
| UniProt Q8NG11 | 2.03 | -2.84 |
| NRBF2 (UniProt Q96F24) | -0.653 | 0.251 |
| KDSR (UniProt Q06136) | – | -0.705 |
| DNAJC19 (UniProt Q96DA6) | 2.06 | -0.573 |
| UniProt Q13404 | -1.24 | -0.713 |
| UniProt A6NFQ2 | -0.344 | 1.98 |
| UniProt Q6ZN17 | -0.822 | – |
| UniProt P15153 | 0.0134 | -0.381 |
| TRUB1 (UniProt Q8WWH5) | -0.871 | 1.37 |
| ATRIP (UniProt Q8WXE1) | 1.52 | 0.0796 |
| SAMD4B (UniProt Q5PRF9) | -0.13 | -1.47 |

Complete entries from above. Values in the order: melting temperature shift [1] [°C]	melting temperature shift [2] [°C]
SAMD4B (UniProt Q5PRF9) in the list: -0.13	-1.47
UniProt Q9H930 in the list: –	-0.557
UniProt Q7L523 in the list: -0.863	1.37
UniProt A6NFQ2 in the list: -0.344	1.98

The list continues:

| Target | melting temperature shift [1] [°C] | melting temperature shift [2] [°C] |
| --- | --- | --- |
| UBAP1 (UniProt Q9NZ09) | -0.91 | -0.997 |
| SRPK1 (UniProt Q96SB4) | -0.806 | 0.201 |
| WDR70 (UniProt Q9NW82) | 0.29 | -0.0609 |
| PATL1 (UniProt Q86TB9) | -0.633 | -0.794 |
| MRPL30 (UniProt Q8TCC3) | 0.977 | 0.258 |
| HABP4 (UniProt Q5JVS0) | -0.134 | – |
| CCNK (UniProt O75909) | -0.711 | -0.104 |
| TIMM17A (UniProt Q99595) | 1.36 | -2.85 |
| ATXN10 (UniProt Q9UBB4) | -0.258 | -0.933 |
| UniProt Q9HA92 | 2.06 | – |
| COMMD2 (UniProt Q86X83) | -0.743 | – |
| UniProt O95625 | -0.328 | – |
| PSPC1 (UniProt Q8WXF1) | -0.213 | -0.384 |
| PRKAB1 (UniProt Q9Y478) | -0.147 | -0.469 |
| UniProt Q9BRR3 | 2.02 | – |
| UniProt Q9NU02 | – | -0.225 |
| PQBP1 (UniProt O60828) | -2.7 | – |
| NHLRC2 (UniProt Q8NBF2) | 0.572 | 0.324 |
| UniProt P25098 | -1.68 | 0.438 |
| STX6 (UniProt O43752) | -0.964 | 0.971 |
| STX7 (UniProt O15400) | 1.57 | – |
| UniProt P55201 | -3.42 | – |
| EIF4G3 (UniProt O43432) | -0.713 | -0.118 |
| LGALSL (UniProt Q3ZCW2) | -1.79 | – |

| Target | melting temperature shift [1] [°C] | melting temperature shift [2] [°C] |
| --- | --- | --- |
| NME6 (UniProt O75414) | – | -0.661 |
| RAB11FIP5 (UniProt Q9BXF6) | 0.219 | 0.0684 |
| GAMT (UniProt Q14353) | -0.548 | 1.19 |
| MPP1 (UniProt Q00013) | 0.979 | -0.0226 |
| UniProt Q15678 | -0.174 | -0.409 |
| UniProt A6NHG4 | – | 0.078 |
| RARS (UniProt P54136) | -0.897 | -0.0819 |
| CAMKMT (UniProt Q7Z624) | -0.0348 | – |
| UniProt Q8N8J7 | 0.791 | – |
| SCYL2 (UniProt Q6P3W7) | -0.569 | -0.0609 |
| UniProt Q6ZQX7 | 3.93 | – |
| SLC9A3R2 (UniProt Q15599) | 3.99 | – |
| MON2 (UniProt Q7Z3U7) | -0.478 | -0.28 |
| ETNK1 (UniProt Q9HBU6) | -1.41 | 0.652 |
| UniProt Q00266 | – | -2.02 |
| CHID1 (UniProt Q9BWS9) | -0.517 | 0.548 |
| RBM34 (UniProt P42696) | 1.16 | – |
| NEU1 (UniProt Q99519) | 0.485 | -1.13 |
| KIAA0101 (UniProt Q15004) | 1.85 | – |
| APRT (UniProt P07741) | -1.36 | -0.965 |
| UniProt Q6EKJ0 | – | 0.467 |
